This is one part of the list.
Tests used:
Assay in all cases: log2 fold change, soluble protein after heating vs DMSO (PISA); higher = thermal stabilisation; K562 cells, 10 uM, 30 min; active = over 0.2 and 3.5 SD of the protein, either way, in both replicates (recomputed)
[1] = compound: CS(=O)(=O)c1ccc(-c2cnc(N)c(C(=O)Nc3ccccc3)n2)cc1
How it was run: (§1)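 K562 cells at 2×10^6 cells/mL were treated for 30 min with 10 μM compound, and aliquots were heated for 3 min over 48°C-58°C before pooling. Extraction used PBS with 0.5% NP-40 at 4°C, and soluble protein was the supernatant after 21,000xg for 90 min, measured by TMTpro 16plex LC-MS/MS with channel sums equalised. Thermal stability values, relative to control samples and from duplicates, are log2 fold changes.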

Chains of the proteins cited; added tags and fusions are not shown. Lines headed by an entry give the natural chain unless they say otherwise; changes in a name come on top.
UniProt Q8TDP1: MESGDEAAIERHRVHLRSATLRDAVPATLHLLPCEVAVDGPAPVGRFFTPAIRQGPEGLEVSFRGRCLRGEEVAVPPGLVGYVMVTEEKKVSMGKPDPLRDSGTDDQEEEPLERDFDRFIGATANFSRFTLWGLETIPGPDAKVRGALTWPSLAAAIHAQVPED
UniProt P52758: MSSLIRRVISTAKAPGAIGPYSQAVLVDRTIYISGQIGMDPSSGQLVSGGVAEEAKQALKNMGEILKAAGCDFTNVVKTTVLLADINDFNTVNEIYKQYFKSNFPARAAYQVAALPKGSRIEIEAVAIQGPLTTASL
UniProt P22670: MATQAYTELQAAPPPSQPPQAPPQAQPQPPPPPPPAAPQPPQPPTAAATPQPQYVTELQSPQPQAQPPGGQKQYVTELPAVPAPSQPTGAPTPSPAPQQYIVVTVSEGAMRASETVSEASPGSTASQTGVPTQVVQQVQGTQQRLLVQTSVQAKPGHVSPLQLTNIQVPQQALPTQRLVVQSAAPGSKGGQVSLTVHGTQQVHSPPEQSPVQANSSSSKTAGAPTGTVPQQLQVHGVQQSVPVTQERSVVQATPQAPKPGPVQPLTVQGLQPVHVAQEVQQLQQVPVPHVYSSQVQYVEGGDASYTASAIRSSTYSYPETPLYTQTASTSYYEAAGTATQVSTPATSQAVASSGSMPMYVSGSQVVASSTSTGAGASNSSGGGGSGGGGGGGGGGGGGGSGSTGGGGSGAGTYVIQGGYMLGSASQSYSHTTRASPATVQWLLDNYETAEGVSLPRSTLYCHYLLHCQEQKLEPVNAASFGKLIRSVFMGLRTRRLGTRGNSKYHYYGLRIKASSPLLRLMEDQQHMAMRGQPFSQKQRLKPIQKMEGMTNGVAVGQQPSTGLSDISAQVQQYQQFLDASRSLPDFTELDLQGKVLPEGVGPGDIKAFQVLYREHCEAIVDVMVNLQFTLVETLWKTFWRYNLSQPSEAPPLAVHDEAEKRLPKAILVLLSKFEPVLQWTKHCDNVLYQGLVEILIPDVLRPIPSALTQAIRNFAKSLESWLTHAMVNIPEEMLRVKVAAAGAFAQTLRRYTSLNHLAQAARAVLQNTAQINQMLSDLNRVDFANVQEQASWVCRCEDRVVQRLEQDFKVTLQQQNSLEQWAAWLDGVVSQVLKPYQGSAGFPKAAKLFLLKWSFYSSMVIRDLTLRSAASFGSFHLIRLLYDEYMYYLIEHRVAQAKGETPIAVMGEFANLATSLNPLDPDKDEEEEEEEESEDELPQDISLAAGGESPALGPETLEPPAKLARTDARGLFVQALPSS
UniProt Q5VTR2, whole entry, looked up: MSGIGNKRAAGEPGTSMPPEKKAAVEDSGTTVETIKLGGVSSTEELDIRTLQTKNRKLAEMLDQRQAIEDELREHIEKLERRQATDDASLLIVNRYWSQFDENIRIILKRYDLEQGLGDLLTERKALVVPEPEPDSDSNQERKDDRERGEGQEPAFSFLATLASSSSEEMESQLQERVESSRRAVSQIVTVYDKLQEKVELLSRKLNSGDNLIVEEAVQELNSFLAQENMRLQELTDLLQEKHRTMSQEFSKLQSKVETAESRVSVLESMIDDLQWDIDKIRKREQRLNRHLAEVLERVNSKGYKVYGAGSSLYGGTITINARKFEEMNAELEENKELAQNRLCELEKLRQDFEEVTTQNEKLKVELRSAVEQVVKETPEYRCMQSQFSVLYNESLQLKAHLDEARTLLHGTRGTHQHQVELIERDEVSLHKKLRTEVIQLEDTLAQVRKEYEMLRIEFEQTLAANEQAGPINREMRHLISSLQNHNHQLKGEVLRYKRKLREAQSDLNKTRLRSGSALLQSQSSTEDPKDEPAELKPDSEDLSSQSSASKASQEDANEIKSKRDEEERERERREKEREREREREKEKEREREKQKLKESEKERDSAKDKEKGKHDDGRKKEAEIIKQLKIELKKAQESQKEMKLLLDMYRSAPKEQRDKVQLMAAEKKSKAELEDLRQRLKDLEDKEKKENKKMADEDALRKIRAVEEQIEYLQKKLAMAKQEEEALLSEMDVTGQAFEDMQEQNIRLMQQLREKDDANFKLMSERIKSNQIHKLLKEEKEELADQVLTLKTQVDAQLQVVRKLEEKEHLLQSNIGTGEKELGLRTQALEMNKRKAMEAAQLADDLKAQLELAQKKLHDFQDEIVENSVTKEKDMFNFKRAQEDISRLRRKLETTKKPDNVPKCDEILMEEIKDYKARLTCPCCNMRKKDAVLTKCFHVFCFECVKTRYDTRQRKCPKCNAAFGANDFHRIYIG
UniProt O15541: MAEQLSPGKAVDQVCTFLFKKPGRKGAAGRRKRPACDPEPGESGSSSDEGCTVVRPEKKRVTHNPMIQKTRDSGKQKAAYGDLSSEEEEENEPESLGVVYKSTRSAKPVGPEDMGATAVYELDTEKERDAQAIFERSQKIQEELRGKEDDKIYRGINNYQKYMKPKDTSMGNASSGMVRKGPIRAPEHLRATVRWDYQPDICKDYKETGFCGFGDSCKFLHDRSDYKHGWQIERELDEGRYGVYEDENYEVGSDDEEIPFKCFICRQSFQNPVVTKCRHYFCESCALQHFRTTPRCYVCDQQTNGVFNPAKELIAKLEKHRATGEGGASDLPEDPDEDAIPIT
UniProt Q8IUF8: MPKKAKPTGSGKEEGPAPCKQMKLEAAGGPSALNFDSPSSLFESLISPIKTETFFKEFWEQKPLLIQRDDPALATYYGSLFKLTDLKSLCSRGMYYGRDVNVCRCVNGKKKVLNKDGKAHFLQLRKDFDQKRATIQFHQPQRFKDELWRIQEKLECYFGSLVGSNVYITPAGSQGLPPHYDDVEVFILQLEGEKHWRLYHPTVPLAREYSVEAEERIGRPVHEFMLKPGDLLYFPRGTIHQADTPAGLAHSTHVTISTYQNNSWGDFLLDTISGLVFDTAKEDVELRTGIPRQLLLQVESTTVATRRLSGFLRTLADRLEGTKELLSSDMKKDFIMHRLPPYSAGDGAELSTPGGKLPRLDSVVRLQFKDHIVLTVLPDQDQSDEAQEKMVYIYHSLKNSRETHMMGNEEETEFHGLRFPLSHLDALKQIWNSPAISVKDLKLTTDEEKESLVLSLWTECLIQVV
UniProt P62877, whole entry, looked up: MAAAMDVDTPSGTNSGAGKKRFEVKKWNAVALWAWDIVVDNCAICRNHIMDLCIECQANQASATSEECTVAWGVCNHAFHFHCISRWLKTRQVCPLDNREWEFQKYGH
UniProt Q9P0P0: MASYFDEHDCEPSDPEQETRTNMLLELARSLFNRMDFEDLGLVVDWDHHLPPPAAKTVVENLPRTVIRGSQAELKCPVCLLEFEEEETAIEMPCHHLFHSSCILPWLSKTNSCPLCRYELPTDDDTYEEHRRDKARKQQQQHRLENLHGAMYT
UniProt Q06330: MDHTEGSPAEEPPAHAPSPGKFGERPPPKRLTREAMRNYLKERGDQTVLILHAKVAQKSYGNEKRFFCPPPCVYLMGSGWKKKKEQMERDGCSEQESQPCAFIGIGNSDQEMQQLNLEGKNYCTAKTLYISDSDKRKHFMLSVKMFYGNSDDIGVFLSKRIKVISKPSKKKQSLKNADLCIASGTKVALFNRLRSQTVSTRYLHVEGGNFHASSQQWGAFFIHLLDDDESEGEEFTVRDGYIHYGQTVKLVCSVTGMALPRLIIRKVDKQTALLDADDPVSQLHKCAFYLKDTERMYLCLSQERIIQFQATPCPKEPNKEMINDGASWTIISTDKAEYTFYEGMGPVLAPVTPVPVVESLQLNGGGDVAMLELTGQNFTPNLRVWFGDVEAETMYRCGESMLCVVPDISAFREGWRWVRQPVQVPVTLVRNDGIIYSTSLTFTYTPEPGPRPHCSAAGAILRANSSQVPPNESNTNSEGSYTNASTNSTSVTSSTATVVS
UniProt P84095: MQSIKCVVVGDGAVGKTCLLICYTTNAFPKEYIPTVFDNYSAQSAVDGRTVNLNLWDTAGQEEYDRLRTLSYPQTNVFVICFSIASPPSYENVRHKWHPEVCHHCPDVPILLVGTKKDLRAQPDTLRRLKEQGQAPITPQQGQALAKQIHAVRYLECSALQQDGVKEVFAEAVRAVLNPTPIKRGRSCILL
UniProt A6NED2: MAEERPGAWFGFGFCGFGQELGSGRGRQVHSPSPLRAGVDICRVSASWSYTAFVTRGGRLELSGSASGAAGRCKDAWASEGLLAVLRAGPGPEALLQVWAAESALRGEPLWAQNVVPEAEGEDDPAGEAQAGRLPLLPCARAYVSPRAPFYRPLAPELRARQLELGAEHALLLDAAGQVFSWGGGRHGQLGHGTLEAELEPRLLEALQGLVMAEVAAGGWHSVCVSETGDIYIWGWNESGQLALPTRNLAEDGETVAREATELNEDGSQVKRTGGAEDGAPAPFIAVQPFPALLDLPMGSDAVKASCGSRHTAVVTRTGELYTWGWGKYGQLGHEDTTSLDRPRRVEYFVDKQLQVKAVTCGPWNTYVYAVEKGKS
UniProt Q6NUK4: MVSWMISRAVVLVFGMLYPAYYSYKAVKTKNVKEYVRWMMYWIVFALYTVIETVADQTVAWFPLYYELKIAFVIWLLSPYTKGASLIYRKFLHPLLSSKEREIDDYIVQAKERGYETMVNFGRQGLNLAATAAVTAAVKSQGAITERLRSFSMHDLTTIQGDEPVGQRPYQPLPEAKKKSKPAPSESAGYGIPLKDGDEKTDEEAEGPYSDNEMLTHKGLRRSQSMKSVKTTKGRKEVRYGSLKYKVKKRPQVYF
UniProt Q02094: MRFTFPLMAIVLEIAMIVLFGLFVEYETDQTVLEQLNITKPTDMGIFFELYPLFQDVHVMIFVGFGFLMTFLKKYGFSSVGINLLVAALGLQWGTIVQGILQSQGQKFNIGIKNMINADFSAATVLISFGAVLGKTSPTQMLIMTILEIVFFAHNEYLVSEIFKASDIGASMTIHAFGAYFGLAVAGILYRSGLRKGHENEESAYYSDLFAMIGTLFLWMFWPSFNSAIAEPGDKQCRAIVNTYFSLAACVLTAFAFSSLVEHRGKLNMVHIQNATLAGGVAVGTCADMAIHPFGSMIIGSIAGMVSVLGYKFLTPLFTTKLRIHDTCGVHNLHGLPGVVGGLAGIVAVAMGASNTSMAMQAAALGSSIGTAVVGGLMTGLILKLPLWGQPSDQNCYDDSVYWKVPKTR
UniProt O15258: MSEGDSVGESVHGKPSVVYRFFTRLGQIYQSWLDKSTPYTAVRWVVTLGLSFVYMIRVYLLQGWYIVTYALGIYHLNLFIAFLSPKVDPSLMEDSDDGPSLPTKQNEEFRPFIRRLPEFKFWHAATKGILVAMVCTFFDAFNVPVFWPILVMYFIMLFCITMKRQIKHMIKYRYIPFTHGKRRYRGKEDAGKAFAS
UniProt Q9H871: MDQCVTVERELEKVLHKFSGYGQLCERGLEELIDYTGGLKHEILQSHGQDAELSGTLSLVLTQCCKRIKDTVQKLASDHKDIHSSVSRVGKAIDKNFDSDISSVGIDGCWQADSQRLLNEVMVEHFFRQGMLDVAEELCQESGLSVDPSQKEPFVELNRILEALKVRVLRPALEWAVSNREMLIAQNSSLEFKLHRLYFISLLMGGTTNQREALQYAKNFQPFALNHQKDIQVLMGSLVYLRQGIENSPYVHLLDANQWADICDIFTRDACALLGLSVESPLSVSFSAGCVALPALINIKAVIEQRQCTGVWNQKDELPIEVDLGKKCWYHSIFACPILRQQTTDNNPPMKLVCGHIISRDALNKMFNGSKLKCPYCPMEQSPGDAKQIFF

crizotinib = compound: C[C@@H](Oc1cc(-c2cnn(C3CCNCC3)c2)cnc1N)c1c(Cl)ccc(F)c1Cl [crizotinib]
How it was run: as §1

[2] = compound: C[C@@H]1COCCN1C2=NC(=NC(=C2)C3(CC3)S(=O)(=O)C)C4=C5C=CNC5=CC=C4
How it was run: as §1

[3] = compound: C[C@H](C1=CC=C(C=C1)C(=O)NC2=C3C=CNC3=NC=C2)N
How it was run: as §1

duvelisib = compound: C[C@H](Nc1ncnc2nc[nH]c12)c1cc2cccc(Cl)c2c(=O)n1-c1ccccc1 [duvelisib]
How it was run: as §1

gandotinib = compound: Cc1cc(Nc2cc(CN3CCOCC3)c3nc(C)c(Cc4ccc(Cl)cc4F)n3n2)n[nH]1 [gandotinib]
How it was run: as §1

tozasertib = compound: Cc1cc(Nc2cc(N3CCN(C)CC3)nc(Sc3ccc(NC(=O)C4CC4)cc3)n2)n[nH]1 [tozasertib]
How it was run: as §1

[4] = compound: Cc1cc(SCc2sc(-c3ccc(C(F)(F)F)cc3)nc2C)ccc1OCC(=O)O
How it was run: as §1

doramapimod = compound: Cc1ccc(-n2nc(C(C)(C)C)cc2NC(=O)Nc2ccc(OCCN3CCOCC3)c3ccccc23)cc1 [doramapimod]
How it was run: as §1

ispinesib = compound: Cc1ccc(C(=O)N(CCCN)[C@@H](c2nc3cc(Cl)ccc3c(=O)n2Cc2ccccc2)C(C)C)cc1 [ispinesib]
How it was run: as §1

bafetinib = compound: Cc1ccc(NC(=O)c2ccc(CN3CC[C@H](N(C)C)C3)c(C(F)(F)F)c2)cc1Nc1nccc(-c2cncnc2)n1 [bafetinib]
How it was run: as §1

[5] = compound: Cc1cccc(CC(=O)N2CCc3c2ccc(-c2cn(C)c4ncnc(N)c24)c3F)n1
How it was run: as §1

nilotinib = compound: Cc1cn(-c2cc(NC(=O)c3ccc(C)c(Nc4nccc(-c5cccnc5)n4)c3)cc(C(F)(F)F)c2)cn1 [nilotinib]
How it was run: as §1

[6] = compound: Cc1nc(Nc2n[nH]c3c2CN(C(=O)N[C@H](CN(C)C)c2ccccc2)C3(C)C)c2sccc2n1
How it was run: as §1

dasatinib = compound: Cc1nc(Nc2ncc(C(=O)Nc3c(C)cccc3Cl)s2)cc(N2CCN(CCO)CC2)n1 [dasatinib]
How it was run: as §1

[7] = compound: Cc1ncc(-c2ccnc(Nc3ccc(S(C)(=O)=O)cc3)n2)n1C(C)C
How it was run: as §1

[8] = compound: Cn1cc(-c2ccc3c(c2)CCN3C(=O)Cc2cccc(C(F)(F)F)c2)c2c(N)ncnc21
How it was run: as §1

[9] = compound: Cn1cc(-c2ccc3nnc(C(F)(F)c4ccc5ncccc5c4)n3n2)cn1
How it was run: as §1

tipifarnib = compound: Cn1cncc1[C@@](N)(c1ccc(Cl)cc1)c1ccc2c(c1)c(-c1cccc(Cl)c1)cc(=O)n2C [tipifarnib]
How it was run: as §1

mubritinib = compound: FC(F)(F)c1ccc(/C=C/c2nc(COc3ccc(CCCCn4ccnn4)cc3)co2)cc1 [mubritinib]
How it was run: as §1

Measured: log2 fold change

RNASEH2C (UniProt Q8TDP1)
inactive: [1] 0.145 | crizotinib -0.028 | [2] 0.167 | [3] -0.041 | duvelisib 0.081 | gandotinib -0.117 | tozasertib 0.056 | [4] 0.016 | doramapimod 0.023 | ispinesib -0.054 | bafetinib 0.039 | [5] 0.044 | nilotinib -0.055 | [6] -0.02 | dasatinib -0.16 | [7] -0.059 | [8] 0.103 | [9] 0.024 | tipifarnib -0.12 | mubritinib 0.092

RIDA (UniProt P52758)
inactive: [1] 0.022 | crizotinib 0.156 | [2] 0.072 | [3] -0.1 | duvelisib 0.03 | gandotinib 0.01 | tozasertib 0.012 | [4] 0.012 | doramapimod -0.029 | ispinesib 0.118 | bafetinib -0.063 | [5] -0.026 | nilotinib 0.059 | [6] 0 | dasatinib 0.062 | [7] -0.038 | [8] 0.003 | [9] 0.062 | tipifarnib -0.019 | mubritinib -0.024

RFX1 (UniProt P22670)
inactive: [1] 0.017 | crizotinib 0.061 | [2] 0.039 | [3] -0.007 | duvelisib 0.073 | gandotinib 0.006 | tozasertib 0.038 | [4] 0.065 | doramapimod 0.035 | ispinesib 0.019 | bafetinib 0.023 | [5] -0.008 | nilotinib -0.027 | [6] 0.012 | dasatinib -0.02 | [7] 0.004 | [8] 0.054 | [9] 0.023 | tipifarnib -0.013 | mubritinib 0.029

RNF20 (UniProt Q5VTR2)
inactive: [1] 0.003 | crizotinib 0.1 | [2] 0.203 | [3] -0.09 | duvelisib -0.014 | gandotinib 0.094 | tozasertib 0.255 | [4] 0.235 | doramapimod 0.018 | ispinesib -0.108 | bafetinib 0.171 | [5] -0.214 | nilotinib -0.158 | [6] -0.03 | dasatinib 0.029 | [7] -0.017 | [8] 0.066 | [9] 0.108 | tipifarnib -0.011 | mubritinib 0.128

RNF113A (UniProt O15541)
inactive: [1] 0.019 | crizotinib 0.027 | [2] -0.025 | [3] -0.024 | duvelisib -0.004 | gandotinib 0.019 | tozasertib -0.045 | [4] -0.038 | doramapimod -0.044 | ispinesib -0.007 | bafetinib -0.041 | [5] -0.049 | nilotinib 0.032 | [6] -0.014 | dasatinib 0.022 | [7] 0.018 | [8] 0.045 | [9] -0.048 | tipifarnib -0.009 | mubritinib 0.005

RIOX2 (UniProt Q8IUF8)
inactive: [1] 0.07 | crizotinib -0.197 | [2] -0.044 | [3] 0.117 | duvelisib -0.115 | gandotinib 0.114 | tozasertib 0.02 | [4] 0.103 | doramapimod 0.003 | ispinesib 0.1 | bafetinib 0.105 | [5] -0.054 | nilotinib -0.002 | [6] 0.119 | dasatinib -0.005 | [7] -0.015 | [8] -0.066 | [9] 0.001 | tipifarnib 0.018 | mubritinib 0.028

RBX1 (UniProt P62877)
inactive: [1] -0.004 | crizotinib 0.057 | [2] 0.096 | [3] -0.091 | duvelisib 0.115 | gandotinib -0.105 | tozasertib -0.011 | [4] -0.053 | doramapimod -0.017 | ispinesib 0.006 | bafetinib 0.037 | [5] -0.018 | nilotinib -0.03 | [6] -0.015 | dasatinib 0.009 | [7] -0.039 | [8] 0.042 | [9] 0.03 | tipifarnib 0.098 | mubritinib -0.014

RNF181 (UniProt Q9P0P0)
inactive: [1] -0.023 | crizotinib 0.048 | [2] 0.093 | [3] 0.027 | duvelisib 0.048 | gandotinib 0.005 | tozasertib 0 | [4] -0.07 | doramapimod 0.025 | ispinesib -0.001 | bafetinib -0.053 | [5] -0.1 | nilotinib 0.068 | [6] -0.06 | dasatinib 0.105 | [7] -0.006 | [8] 0.051 | [9] 0.027 | tipifarnib -0.008 | mubritinib 0.039

RBPJ (UniProt Q06330)
inactive: [1] 0.014 | crizotinib 0.09 | [2] -0.004 | [3] 0.044 | duvelisib 0.101 | gandotinib -0.066 | tozasertib -0.021 | [4] -0.017 | doramapimod -0.007 | ispinesib -0.024 | bafetinib -0.012 | [5] -0.027 | nilotinib 0.016 | [6] -0.006 | dasatinib 0 | [7] -0.008 | [8] -0.018 | [9] 0.025 | tipifarnib 0.005 | mubritinib 0.008

RHOG (UniProt P84095)
inactive: [1] 0.022 | crizotinib 0.062 | [2] 0.048 | [3] -0.071 | duvelisib -0.016 | gandotinib -0.04 | tozasertib 0 | [4] -0.033 | doramapimod -0.001 | ispinesib 0.09 | bafetinib -0.008 | [5] -0.051 | nilotinib 0.018 | [6] 0.01 | dasatinib 0.056 | [7] 0 | [8] 0.06 | [9] -0.039 | tipifarnib 0.013 | mubritinib 0.009

RCCD1 (UniProt A6NED2)
inactive: [1] 0.04 | crizotinib 0.1 | [2] 0.013 | [3] -0.058 | duvelisib 0.072 | gandotinib -0.078 | tozasertib -0.043 | [4] -0.028 | doramapimod -0.199 | ispinesib 0 | bafetinib -0.08 | [5] 0.021 | nilotinib 0.033 | [6] -0.058 | dasatinib -0.014 | [7] 0.015 | [8] 0.076 | [9] 0.004 | tipifarnib -0.004 | mubritinib 0.011

REEP3 (UniProt Q6NUK4)
inactive: [1] 0.026 | crizotinib -0.239 | [2] -0.125 | [3] -0.009 | duvelisib 0.081 | gandotinib 0.052 | tozasertib -0.108 | [4] 0.025 | doramapimod 0.048 | ispinesib -0.302 | bafetinib -0.044 | [5] 0.062 | nilotinib 0.01 | [6] -0.165 | dasatinib -0.107 | [7] -0.008 | [8] 0.01 | [9] 0 | tipifarnib 0.023 | mubritinib 0.048

RHAG (UniProt Q02094)
inactive: [1] 0.034 | crizotinib -0.154 | [2] -0.033 | [3] -0.16 | duvelisib 0.032 | gandotinib -0.082 | tozasertib 0.041 | [4] 0.064 | doramapimod 0.09 | ispinesib -0.06 | bafetinib 0.047 | [5] 0.017 | nilotinib -0.042 | [6] -0.007 | dasatinib 0.054 | [7] 0.045 | [8] -0.026 | [9] 0.001 | tipifarnib -0.079 | mubritinib 0.083

Looked up one by one from above, 2 records:
RBPJ (UniProt Q06330)
inactive: [1] 0.014 | crizotinib 0.09 | [2] -0.004 | [3] 0.044 | duvelisib 0.101 | gandotinib -0.066 | tozasertib -0.021 | [4] -0.017 | doramapimod -0.007 | ispinesib -0.024 | bafetinib -0.012 | [5] -0.027 | nilotinib 0.016 | [6] -0.006 | dasatinib 0 | [7] -0.008 | [8] -0.018 | [9] 0.025 | tipifarnib 0.005 | mubritinib 0.008

RCCD1 (UniProt A6NED2)
inactive: [1] 0.04 | crizotinib 0.1 | [2] 0.013 | [3] -0.058 | duvelisib 0.072 | gandotinib -0.078 | tozasertib -0.043 | [4] -0.028 | doramapimod -0.199 | ispinesib 0 | bafetinib -0.08 | [5] 0.021 | nilotinib 0.033 | [6] -0.058 | dasatinib -0.014 | [7] 0.015 | [8] 0.076 | [9] 0.004 | tipifarnib -0.004 | mubritinib 0.011

The list goes on:

RER1 (UniProt O15258)
inactive: [1] 0.034 | crizotinib 0.039 | [2] -0.005 | [3] -0.069 | duvelisib 0.027 | gandotinib -0.175 | tozasertib -0.008 | [4] 0.027 | doramapimod -0.026 | ispinesib -0.013 | bafetinib -0.064 | [5] -0.155 | nilotinib 0.005 | [6] 0.003 | dasatinib 0.039 | [7] 0.006 | [8] 0.001 | [9] 0.045 | tipifarnib 0.086 | mubritinib -0.033

RMND5A (UniProt Q9H871)
inactive: [1] 0.002 | crizotinib 0.046 | [2] -0.036 | [3] 0.025 | duvelisib 0.024 | gandotinib -0.067 | tozasertib 0.052 | [4] 0.027 | doramapimod 0.093 | ispinesib -0.05 | bafetinib 0.031 | [5] 0.019 | nilotinib -0.03 | [6] -0.027 | dasatinib -0.008 | [7] 0.008 | [8] -0.017 | [9] 0.003 | tipifarnib 0.055 | mubritinib 0.012

— the supplement of paper PMC10849652
